Source: publication PMC10531797
These are yes or no findings as the source states them, for the method shown. Binding seen in cells or lysates may run through a third protein. Some binding calls cover weakened binding; strength is not graded here. Tags and fused reporters may be left off the sequences shown.

By UniProt entry, the sequences of proteins in these tests, tags left out. Residues count along the entry.
UniProt Q99523, residues 78-831: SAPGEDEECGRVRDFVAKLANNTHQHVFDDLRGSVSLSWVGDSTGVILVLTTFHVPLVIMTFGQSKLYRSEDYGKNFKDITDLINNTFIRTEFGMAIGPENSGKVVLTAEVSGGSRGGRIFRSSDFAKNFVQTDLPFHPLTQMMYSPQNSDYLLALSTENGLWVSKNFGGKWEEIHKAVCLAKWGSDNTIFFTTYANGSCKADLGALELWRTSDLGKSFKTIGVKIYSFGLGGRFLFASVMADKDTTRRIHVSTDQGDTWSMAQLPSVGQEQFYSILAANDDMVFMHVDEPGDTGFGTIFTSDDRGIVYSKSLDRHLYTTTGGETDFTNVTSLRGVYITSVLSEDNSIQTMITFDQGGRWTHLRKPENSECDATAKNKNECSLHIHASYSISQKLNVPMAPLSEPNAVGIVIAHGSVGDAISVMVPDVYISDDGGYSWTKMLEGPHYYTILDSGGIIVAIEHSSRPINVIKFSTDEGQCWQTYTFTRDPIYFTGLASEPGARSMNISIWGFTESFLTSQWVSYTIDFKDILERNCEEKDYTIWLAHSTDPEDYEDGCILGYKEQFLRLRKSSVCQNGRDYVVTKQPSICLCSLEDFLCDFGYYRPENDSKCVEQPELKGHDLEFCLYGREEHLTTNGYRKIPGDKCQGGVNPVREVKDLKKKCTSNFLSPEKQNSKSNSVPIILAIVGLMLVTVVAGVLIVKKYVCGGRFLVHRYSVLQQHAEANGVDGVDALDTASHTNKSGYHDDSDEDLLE

Target: T1, glucose transporter-4 (Glut4) (human (endogenous in adipocytes differentiated from hASCs)) (UniProt P14672)
T1 sequence: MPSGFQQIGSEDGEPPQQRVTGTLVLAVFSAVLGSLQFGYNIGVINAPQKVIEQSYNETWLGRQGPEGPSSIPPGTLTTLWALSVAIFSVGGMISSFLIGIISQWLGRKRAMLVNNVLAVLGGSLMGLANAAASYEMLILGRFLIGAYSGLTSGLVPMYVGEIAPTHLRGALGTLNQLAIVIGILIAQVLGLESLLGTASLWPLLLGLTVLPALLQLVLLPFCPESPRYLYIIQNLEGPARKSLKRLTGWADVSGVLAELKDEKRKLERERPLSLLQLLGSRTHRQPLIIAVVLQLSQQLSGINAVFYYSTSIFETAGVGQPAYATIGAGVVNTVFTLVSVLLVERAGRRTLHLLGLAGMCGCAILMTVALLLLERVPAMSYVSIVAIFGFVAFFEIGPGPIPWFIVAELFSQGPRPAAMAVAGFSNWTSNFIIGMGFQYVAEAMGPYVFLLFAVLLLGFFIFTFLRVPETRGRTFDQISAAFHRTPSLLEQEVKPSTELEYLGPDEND
Test: co-IP; Glut4-agarose antibody (IgG as control) on 200 ug pre-cleared lysate of nondiabetic and type 2 diabetic human adipocytes (4 days of differentiation), overnight at 4 °C, PBS wash; blot with an antibody to the N-terminal domain of sortilin that detects both variants

full-length sortilin (Sort_FL) (from UniProt Q99523-1 78-831)
binding: binds
